From PubChem BioAssay AID540276 (National Center for Advancing Translational Sciences (NCATS), 2011)
Out of some 300,000 compounds screened, about 5,400 (1.8%) were called active. The shares of active, inactive and inconclusive entries below differ from those in the screen. Calls come from the whole dose curve; tested in HEK293 cells. A potency beside an inconclusive call is a rough fit, not a confirmed value.

Assay: qHTS for inhibitors of binding or entry into cells for Marburg Virus
Conditions: Marburg virus pseudotyped entry inhibition, cell reporter; series mostly up to 37.8 µM
Potency is the fitted concentration of half-maximal effect.

| Compound | Potency |
| --- | --- |
| COc1cc(NS(=O)(=O)c2ccc(NC(C)=O)cc2)nc(OC)n1 | inconclusive: 0.013 µM [inhibitor, partial curve, poor fit] |
| O=S(=O)(NC(=NC1CCCC1)C(F)(F)F)c1ccccc1 | inconclusive: 0.891 µM [activator, full curve, poor fit] |
| O=C(NCC(=O)N1CCN(C(c2ccccc2)c2ccccc2)CC1)c1ccc(Br)o1 | inconclusive: 35.5 µM [inhibitor, single point] |
| Cc1ccc(-c2nsc(NC(=O)c3oc4cc(C)c(Cl)cc4c3C)n2)cc1 | inactive |
| CCn1cc(C2C(C(=O)Nc3ccc(Br)cn3)=C(C)NC3=C2C(=O)CCC3)c(C)n1 (centres undefined) | inconclusive: 2.91 µM [activator, single point] |
| CCOC(=O)c1snc2c(=O)[nH]cnc12 | inconclusive: 13 µM [activator, partial curve] |
| CCn1c(SCC(=O)Nc2cccc(Cl)c2)nnc1-c1nonc1NC(C)=O | inactive |
| CCCC(c1nnnn1CS(=O)(=O)c1ccc(C)cc1)N1CCN(c2ccc(F)cc2)CC1 (centres undefined) | inconclusive: 12.6 µM [inhibitor, single point] |
| CC(/C=C/c1ccc2c(c1)OCO2)=N\NC(=O)c1ccccc1 | inactive |
| O=C(/C=C/c1cccc(C(F)(F)F)c1)OCC(=O)N1CCN(c2ccccc2)CC1 | inactive |
| O=C(c1ccc(F)cc1)N1c2ncnn2C2(CCCCC2)[C@@H]2CCCC[C@@H]21 | inconclusive: 14.1 µM [inhibitor, partial curve, poor fit] |
| COc1ccccc1CP(=O)(c1ccccc1)c1ccccc1 | inactive |
| CCOc1ccccc1C(=O)Nc1cnn(Cc2ccc(F)cc2)c1 | inconclusive: 1.26 µM [activator, full curve, poor fit] |
| CC(=O)Nc1ccc(S(=O)(=O)N2CCc3nc(COc4ccccc4)c4c(c3C2)CO[C@@H](C)C4)cc1 | inconclusive: 2.99 µM [activator, partial curve, poor fit] |
| C[C@@H](C(=O)Nc1ccc2ccccc2c1)[C@H]1C[C@]1(C)[C@H](NS(=O)(=O)c1ccccc1)c1ccccc1 | inactive |
| S=c1nccc(-c2cc(Cl)sc2Cl)[nH]1 | inconclusive: 6.31 µM [inhibitor, single point] |
| CCOc1ccccc1CN(CCc1ccc2c(c1)OCO2)Cc1cc(OC)c(OC)cc1OC | active: 10 µM |
| CC(Sc1nnc(Cc2ccc([N+](=O)[O-])cc2)o1)C(N)=O (centres undefined) | inconclusive: 32.6 µM [activator, single point] |
| Cc1sc(NC(=S)NC(=O)c2ccco2)c(C#N)c1C | inconclusive: 17.8 µM [activator, single point] |
